Results as given in patent US10590392B2, “Generation of airway epithelial organoids from human pluripotent stem cells” (TRUSTEES OF BOSTON UNIVERSITY, priority 2017, dated 2020).
At least one compound was matched to its structure with a doubt left.

Tested on: iPSC-derived NKX2-1GFP+ lung progenitors
Experiment: Post-specification patterning of hPSC-derived lung progenitors, treatment day 15 to 19, RT-qPCR/flow cytometry of NKX2-1GFP+ cells
Type: cell-based, human
Experimental: Measurement of mRNA expression by reverse transcriptase quantitative real time PCR (RT-qPCR) was performed as previously described(Longmire et al., 2012). Briefly, RNA was extracted from cells using a QIAzol Lysis Reagent (Qiagen, Venlo, Netherlands) and 150 ng of RNA was transcribed to cDNA using reverse transcription reagents (Applied Biosystems). Real time PCR (qPCR) was performed using TaqMan Fast Universal PCR Master Mix (ThermoFisher) and TaqMan (Applied Biosystems) reagents. The cDNA was diluted 1:3 and 2 μL of cDNA was added to each 25 μL (for Applied Biosystems StepOne 96-well System) or 12.5 μL (for Applied Biosystems QuantStudio7 384-well system) qPCR reaction. Each sample was run in technical triplicates and cycle (Ct) values were averaged between triplicates for analysis. Relative gene expression, normalized to 18S control, was calculated as fold change in 18S-normalized gene expression, compared to baseline, using the 2^(−ΔΔCT) method. Baseline, defined as fold change=1, was set to undifferentiated iPSC levels, or if undetected, a cycle number of 40 was assigned to allow fold change calculations. Adult lung control RNA was extracted from a normal lung biopsy sample. Primers were all TaqMan probes purchased from Applied Biosystems. Specifics of primers used are detailed in Table 1.
Day 14-16 cells from the lung progenitor directed differentiation protocol were harvested with 0.05% Trypsin-EDTA (Invitrogen) and replated in clumps in either Matrigel-coated tissue culture dishes in two-dimensional culture or in three-dimensional Matrigel drops. Matrigel drops were formed by resuspending cell clumps directly in undiluted Matrigel matrix, pipetting 50-100 μL into each well, and allowing the Matrigel/cell mixture to gel for 30 minutes at 37° C. Cell drops were then covered completely with growth medium.
Post-specification culture conditions were determined by the addition of growth factors to cSFDM. For patterning experiments, growth factors were added to a base media containing 10 ng/mL rhFGF10 (“Base”) and additional factors detailed in the results text. […] Doses of growth factors were determined based on previously published directed differentiation protocols (Huang et al., 2013; Kurmann et al., 2015; Longmire et al., 2012) as well as dose-response experiments using 7XTCF lentiviral reporters for CHIR99021 (Figure S2d-e). […]
To test whether the inventors could efficiently induce a proximal vs distal program in iPSC-derived lung progenitors, the inventors modulated key developmental pathways beginning on day 15 of differentiation in our model system (FIG. 1C-1E), and monitored changes in SOX2 and SOX9 expression that are due to coordinated proximal vs distal patterning changes in purified NKX2-1^GFP+ cells within 4 days of treatment. […]

[1] = NKX2-1GFP+ sorted cells on day 19 after treatment day 15-19, vs base media (10 ng/mL FGF10), RT-qPCR

## c1cc(-c2cnn3cc(-c4ccc(OCCN5CCCCC5)cc4)cnc23)ccn1 [Dorsomorphin]
CHIR vs CHIR+Dorso p=1×10^−6
  CHIR induced distal patterning: significantly blocked
[1]
  SCGB3A2 mRNA expression: increased levels
  SOX2 mRNA expression: increased levels
  SOX9 mRNA expression: decreased expression
